The other results are listed elsewhere or left out.
Assays:
Experiment in all cases: log2 fold change, soluble protein after heating vs DMSO (PISA); higher = thermal stabilisation; K562 cells, 10 uM, 30 min; active = over 0.2 and 3.5 SD of the protein, either way, in both replicates (recomputed)
[1] = compound: C1=CC=C(C=C1)[C@H](COC2=CC3=C(C=C2)NC(=O)N3)NC(=O)C4=CC=CN(C4=O)CC5=CC(=C(C=C5)F)F
Method in brief: (§1)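 Values are thermal stability changes relative to control samples and are taken from duplicates. They are stated as log2 fold changes. Before quantification by TMTpro 16plex LC-MS/MS with equalised channel sums, K562 cells at 2×10^6 cells/mL were treated with 10 μM compound for 30 min, heated in aliquots for 3 min across 48°C-58°C, pooled, extracted in PBS with 0.5% NP-40 at 4°C, and centrifuged at 21,000xg for 90 min to give the soluble supernatant.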

Sequences of proteins named here, by UniProt entry; tags and fusion partners are left off. A change or cut given only in a name is not applied to a line headed by its entry.
UniProt P62312: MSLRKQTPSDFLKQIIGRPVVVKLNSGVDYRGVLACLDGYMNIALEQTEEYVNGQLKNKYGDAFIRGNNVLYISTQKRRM
UniProt Q5SRI9: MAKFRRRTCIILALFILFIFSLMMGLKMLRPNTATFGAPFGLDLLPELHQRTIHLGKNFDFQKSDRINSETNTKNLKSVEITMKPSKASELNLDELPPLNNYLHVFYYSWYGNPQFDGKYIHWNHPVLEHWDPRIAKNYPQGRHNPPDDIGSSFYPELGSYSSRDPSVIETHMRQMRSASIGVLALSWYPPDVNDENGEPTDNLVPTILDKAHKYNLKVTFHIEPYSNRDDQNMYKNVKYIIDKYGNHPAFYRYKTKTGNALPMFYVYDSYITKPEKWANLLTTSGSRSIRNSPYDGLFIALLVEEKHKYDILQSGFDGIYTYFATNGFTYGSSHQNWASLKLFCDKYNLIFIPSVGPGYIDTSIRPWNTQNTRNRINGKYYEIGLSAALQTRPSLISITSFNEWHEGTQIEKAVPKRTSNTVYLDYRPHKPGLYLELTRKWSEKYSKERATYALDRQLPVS
UniProt Q9Y608: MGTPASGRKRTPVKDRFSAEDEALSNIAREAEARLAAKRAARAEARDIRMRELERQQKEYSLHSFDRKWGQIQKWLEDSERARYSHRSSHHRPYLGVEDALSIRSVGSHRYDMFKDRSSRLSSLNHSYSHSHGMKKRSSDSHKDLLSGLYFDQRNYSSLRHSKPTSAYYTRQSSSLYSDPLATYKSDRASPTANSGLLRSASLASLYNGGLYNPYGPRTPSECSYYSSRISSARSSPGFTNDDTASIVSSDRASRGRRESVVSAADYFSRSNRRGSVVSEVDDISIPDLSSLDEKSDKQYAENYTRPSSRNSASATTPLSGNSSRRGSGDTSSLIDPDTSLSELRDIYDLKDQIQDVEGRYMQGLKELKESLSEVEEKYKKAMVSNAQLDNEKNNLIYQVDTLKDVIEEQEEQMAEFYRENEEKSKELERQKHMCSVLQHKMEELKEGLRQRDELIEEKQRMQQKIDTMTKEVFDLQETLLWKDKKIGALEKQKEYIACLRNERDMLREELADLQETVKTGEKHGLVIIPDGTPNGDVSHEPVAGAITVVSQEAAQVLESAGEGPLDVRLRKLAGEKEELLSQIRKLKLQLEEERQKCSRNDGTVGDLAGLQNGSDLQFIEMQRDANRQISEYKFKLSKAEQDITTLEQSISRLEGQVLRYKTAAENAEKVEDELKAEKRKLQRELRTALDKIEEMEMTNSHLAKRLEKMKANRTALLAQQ
UniProt Q86V48: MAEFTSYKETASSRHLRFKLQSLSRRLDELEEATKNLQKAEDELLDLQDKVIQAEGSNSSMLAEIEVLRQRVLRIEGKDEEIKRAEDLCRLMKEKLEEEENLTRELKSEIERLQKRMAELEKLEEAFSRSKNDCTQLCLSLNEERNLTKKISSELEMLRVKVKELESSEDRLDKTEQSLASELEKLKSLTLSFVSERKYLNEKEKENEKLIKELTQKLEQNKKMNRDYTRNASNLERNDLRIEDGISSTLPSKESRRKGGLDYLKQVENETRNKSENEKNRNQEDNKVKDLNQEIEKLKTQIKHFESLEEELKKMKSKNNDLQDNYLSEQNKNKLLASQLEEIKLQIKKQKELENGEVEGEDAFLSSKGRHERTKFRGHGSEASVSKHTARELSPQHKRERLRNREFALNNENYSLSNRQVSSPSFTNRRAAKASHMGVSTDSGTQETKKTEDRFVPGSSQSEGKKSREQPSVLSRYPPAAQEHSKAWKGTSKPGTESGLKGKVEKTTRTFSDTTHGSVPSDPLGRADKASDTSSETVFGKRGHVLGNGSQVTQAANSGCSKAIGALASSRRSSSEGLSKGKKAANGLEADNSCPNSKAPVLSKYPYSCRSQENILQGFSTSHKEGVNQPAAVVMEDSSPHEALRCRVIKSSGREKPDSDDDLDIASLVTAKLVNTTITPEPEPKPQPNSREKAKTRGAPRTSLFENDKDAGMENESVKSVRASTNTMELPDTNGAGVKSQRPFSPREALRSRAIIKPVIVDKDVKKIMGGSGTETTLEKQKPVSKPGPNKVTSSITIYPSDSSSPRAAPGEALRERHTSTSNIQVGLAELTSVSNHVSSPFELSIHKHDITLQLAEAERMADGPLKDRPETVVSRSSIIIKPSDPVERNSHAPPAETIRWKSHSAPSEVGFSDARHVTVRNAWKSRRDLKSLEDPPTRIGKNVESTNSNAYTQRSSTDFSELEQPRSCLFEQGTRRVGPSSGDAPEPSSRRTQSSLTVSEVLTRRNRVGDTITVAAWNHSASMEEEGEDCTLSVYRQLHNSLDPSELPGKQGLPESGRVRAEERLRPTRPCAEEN
UniProt P27361, whole entry, looked up: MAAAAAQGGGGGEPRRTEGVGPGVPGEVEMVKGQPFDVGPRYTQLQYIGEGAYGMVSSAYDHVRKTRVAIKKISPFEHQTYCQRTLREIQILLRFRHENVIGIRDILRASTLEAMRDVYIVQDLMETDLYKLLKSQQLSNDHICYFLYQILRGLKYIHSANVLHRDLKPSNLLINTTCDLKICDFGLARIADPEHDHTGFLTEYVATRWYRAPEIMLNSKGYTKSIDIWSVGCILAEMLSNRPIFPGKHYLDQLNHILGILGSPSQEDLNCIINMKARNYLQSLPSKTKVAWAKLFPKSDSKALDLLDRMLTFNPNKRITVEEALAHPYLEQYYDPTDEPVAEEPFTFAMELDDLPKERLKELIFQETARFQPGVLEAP
UniProt P36941: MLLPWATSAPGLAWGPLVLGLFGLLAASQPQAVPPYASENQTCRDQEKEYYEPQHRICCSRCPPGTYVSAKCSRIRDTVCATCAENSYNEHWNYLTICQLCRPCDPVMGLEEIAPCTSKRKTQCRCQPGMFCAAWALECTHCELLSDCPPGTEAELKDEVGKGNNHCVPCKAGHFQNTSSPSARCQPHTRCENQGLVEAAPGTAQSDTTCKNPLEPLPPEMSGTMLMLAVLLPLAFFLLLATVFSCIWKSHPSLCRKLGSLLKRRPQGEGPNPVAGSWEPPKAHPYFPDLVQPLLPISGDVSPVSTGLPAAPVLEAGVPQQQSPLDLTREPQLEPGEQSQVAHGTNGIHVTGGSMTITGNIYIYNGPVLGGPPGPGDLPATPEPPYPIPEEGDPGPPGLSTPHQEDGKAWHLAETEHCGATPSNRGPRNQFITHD
UniProt Q6P9F7: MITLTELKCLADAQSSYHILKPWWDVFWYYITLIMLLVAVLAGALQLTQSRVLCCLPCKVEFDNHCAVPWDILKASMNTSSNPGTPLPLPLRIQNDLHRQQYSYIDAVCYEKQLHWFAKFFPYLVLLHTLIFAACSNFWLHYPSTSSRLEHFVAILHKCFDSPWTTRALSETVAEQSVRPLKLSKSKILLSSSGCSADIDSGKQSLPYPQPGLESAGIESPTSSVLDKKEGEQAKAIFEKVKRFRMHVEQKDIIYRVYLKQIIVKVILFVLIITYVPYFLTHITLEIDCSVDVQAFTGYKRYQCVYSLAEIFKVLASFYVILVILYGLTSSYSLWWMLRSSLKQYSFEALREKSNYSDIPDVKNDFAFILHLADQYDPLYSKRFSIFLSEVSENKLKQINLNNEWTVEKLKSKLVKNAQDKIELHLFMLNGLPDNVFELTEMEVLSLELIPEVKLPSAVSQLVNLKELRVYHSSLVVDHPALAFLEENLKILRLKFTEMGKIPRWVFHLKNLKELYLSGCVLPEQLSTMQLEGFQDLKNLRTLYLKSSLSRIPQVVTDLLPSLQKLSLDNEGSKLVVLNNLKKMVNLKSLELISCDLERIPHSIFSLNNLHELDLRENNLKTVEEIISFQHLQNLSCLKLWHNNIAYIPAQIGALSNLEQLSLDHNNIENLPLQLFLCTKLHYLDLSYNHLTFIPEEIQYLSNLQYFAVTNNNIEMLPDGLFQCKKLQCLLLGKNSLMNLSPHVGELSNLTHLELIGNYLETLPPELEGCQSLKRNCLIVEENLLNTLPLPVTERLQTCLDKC
UniProt P27448: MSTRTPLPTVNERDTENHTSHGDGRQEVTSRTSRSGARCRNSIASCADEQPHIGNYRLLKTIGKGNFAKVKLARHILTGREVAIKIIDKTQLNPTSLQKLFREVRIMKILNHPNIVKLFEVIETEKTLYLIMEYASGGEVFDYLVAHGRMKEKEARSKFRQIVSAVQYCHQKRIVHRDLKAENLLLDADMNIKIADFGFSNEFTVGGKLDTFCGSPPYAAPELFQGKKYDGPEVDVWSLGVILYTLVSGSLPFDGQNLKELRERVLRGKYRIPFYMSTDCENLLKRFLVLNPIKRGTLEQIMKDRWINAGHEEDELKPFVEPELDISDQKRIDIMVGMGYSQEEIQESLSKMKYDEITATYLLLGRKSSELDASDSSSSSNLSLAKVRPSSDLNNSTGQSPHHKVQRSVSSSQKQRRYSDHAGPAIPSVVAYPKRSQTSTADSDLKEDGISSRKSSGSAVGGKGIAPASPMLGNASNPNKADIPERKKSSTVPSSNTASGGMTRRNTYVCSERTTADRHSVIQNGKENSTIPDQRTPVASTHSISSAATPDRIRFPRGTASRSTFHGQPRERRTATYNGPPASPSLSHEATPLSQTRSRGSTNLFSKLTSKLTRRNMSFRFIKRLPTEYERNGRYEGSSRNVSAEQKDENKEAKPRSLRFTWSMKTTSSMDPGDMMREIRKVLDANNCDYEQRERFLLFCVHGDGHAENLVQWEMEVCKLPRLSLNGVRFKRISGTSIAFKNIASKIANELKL
UniProt Q8WWC4: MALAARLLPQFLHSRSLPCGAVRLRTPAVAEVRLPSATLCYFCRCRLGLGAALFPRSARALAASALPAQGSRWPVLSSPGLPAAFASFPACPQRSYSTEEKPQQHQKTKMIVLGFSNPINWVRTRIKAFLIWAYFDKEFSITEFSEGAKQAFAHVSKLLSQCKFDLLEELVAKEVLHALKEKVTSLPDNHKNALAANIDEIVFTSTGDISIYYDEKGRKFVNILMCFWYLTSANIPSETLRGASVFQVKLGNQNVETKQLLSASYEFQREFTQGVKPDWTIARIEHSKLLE
UniProt Q9Y383: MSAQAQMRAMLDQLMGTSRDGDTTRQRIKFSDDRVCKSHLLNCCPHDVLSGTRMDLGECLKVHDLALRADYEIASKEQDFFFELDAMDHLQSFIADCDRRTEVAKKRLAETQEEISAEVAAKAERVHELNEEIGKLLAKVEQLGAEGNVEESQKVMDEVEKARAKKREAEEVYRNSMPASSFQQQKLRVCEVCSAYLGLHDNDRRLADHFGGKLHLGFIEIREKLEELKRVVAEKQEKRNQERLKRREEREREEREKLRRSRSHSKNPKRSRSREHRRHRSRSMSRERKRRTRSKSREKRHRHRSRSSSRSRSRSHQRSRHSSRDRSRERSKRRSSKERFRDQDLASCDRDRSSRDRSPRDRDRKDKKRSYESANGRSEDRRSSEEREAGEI
UniProt Q9UPY8, whole entry, looked up: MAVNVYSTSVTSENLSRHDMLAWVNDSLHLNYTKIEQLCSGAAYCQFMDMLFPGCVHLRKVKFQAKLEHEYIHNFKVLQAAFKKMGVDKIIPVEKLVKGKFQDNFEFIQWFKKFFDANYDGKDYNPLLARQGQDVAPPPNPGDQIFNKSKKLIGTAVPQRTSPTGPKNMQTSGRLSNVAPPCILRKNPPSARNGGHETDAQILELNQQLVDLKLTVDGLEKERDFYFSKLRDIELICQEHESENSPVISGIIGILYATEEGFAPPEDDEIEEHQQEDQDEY
UniProt P45985: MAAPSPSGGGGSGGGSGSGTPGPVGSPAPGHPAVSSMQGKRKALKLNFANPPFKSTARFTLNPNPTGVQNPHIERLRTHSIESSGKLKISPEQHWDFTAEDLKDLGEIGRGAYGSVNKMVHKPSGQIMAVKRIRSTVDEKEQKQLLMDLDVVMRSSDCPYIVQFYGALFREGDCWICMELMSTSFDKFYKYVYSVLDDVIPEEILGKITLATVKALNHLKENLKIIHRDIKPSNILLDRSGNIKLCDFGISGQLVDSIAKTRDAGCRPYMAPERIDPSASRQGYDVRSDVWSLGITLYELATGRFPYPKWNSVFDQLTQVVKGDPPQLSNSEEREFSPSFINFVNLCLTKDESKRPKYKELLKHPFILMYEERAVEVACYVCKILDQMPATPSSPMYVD
UniProt O95777: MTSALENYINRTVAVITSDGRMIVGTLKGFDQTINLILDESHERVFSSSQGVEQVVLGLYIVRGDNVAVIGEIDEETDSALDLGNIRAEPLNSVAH
UniProt Q9HD34: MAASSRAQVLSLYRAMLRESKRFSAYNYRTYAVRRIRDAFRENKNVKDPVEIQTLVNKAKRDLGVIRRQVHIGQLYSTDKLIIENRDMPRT

[2] = compound: CC1=C(SC2=C1C(=N[C@H](C3=NN=C(N32)C)CC(=O)N)C4=CC=C(C=C4)Cl)C
Method in brief: as §1

[3] = compound: CC1=C2C(=CC=C1)N=C(N(C2=O)C3=CC=CC=C3C)CN4C=NC5=C(N=CN=C54)N
Method in brief: as §1

[4] = compound: Cc1sc2c(c1C)C(c1ccc(Cl)cc1)=N[C@@H](CC(=O)OC(C)(C)C)c1nnc(C)n1-2
Method in brief: as §1

[5] = compound: c1ccc([C@@H]2C[C@H]2NC2CCNCC2)cc1
Method in brief: as §1

Measured: log2 fold change

LTF (UniProt P02788)
inactive: [1] -0.048 | [2] -0.088 | [3] -0.002 | [4] 0.098 | [5] 0.13

MAP4 (UniProt P27816)
inactive: [1] 0.028 | [2] -0.017 | [3] -0.058 | [4] 0.003 | [5] 0.037

MAPRE2 (UniProt Q15555)
inactive: [1] -0.337 | [2] -0.028 | [3] -0.228 | [4] -0.068 | [5] -0.011

LYRM2 (UniProt Q9NU23)
inactive: [1] 0.044 | [2] 0.098 | [3] 0.144 | [4] -0.066 | [5] 0

LTBP1 isoform 4 (UniProt Q14766)
inactive: [1] -0.135 | [2] 0.148 | [3] 0.072 | [4] -0.079 | [5] 0.011

LSM4 (UniProt Q9Y4Z0)
inactive: [1] 0.023 | [2] -0.023 | [3] -0.053 | [4] 0.025 | [5] 0.01

MAP4 isoform 5 (UniProt P27816)
inactive: [1] 0.077

MAN1B1 (UniProt Q9UKM7)
inactive: [1] 0 | [2] 0.021 | [3] 0.108 | [4] -0.017 | [5] -0.064

MARCHF3 (UniProt Q86UD3)
inactive: [1] -0.096

LSM6 (UniProt P62312)
inactive: [1] 0.044 | [2] 0.018 | [3] -0.069 | [4] -0.05 | [5] -0.042

MANEA (UniProt Q5SRI9)
inactive: [1] 0 | [2] -0.024 | [3] -0.059 | [4] -0.02 | [5] 0.011

LRRFIP2 (UniProt Q9Y608)
inactive: [1] 0.058 | [2] 0.01 | [3] 0.007 | [4] 0.014 | [5] 0.06

LSM12 isoform 2 (UniProt Q3MHD2)
inactive: [1] 0.076 | [2] -0.018 | [3] -0.101 | [4] -0.019 | [5] 0.024

LUZP1 (UniProt Q86V48)
inactive: [1] -0.053 | [2] -0.141 | [3] -0.171 | [4] -0.217 | [5] -0.201

MAPK3 (UniProt P27361)
inactive: [1] -0.014 | [2] 0.039 | [3] -0.02 | [4] -0.059 | [5] -0.029

MAN1A2 (UniProt O60476)
inactive: [1] 0.017 | [2] -0.034 | [3] 0.008 | [4] -0.001 | [5] 0.043

LTBR (UniProt P36941)
inactive: [1] 0.023 | [2] -0.105 | [3] 0.072 | [4] 0.009 | [5] 0.091

MAD2L1 (UniProt Q13257)
inactive: [1] -0.045 | [2] 0.077 | [3] 0.067 | [4] -0.021 | [5] -0.019

MACO1 (UniProt Q8N5G2)
inactive: [1] -0.025 | [2] 0.038 | [3] -0.008 | [4] 0.03 | [5] -0.048

MAP2K1 (UniProt Q02750)
inactive: [1] -0.01 | [2] 0.033 | [3] 0.099 | [4] -0.015 | [5] 0

MAP7D1 (UniProt Q3KQU3)
inactive: [1] 0.068 | [2] -0.214 | [3] -0.133 | [4] 0.244 | [5] 0.023

MARS (UniProt P56192)
inactive: [1] -0.005 | [2] -0.017 | [3] -0.026 | [4] 0.084 | [5] -0.006

LRRC8B (UniProt Q6P9F7)
inactive: [1] -0.003

LYZ (UniProt P61626)
inactive: [1] 0.196 | [2] -0.017 | [3] -0.431 | [4] 0.092 | [5] 0.207

MAP1A isoform 2 (UniProt P78559)
inactive: [1] 0.013 | [2] -0.095 | [3] -0.012 | [4] 0.022 | [5] -0.015

LYPLA2 (UniProt O95372)
inactive: [1] 0.033 | [2] 0.056 | [3] -0.023 | [4] -0.161 | [5] -0.08

MAPK8 isoform 3 (UniProt P45983)
inactive: [1] -0.007 | [2] 0.151 | [3] 0.072 | [4] 0.061 | [5] -0.055

LYL1 (UniProt P12980)
inactive: [1] 0.066 | [2] 0.011 | [3] -0.082 | [4] 0.047 | [5] -0.238

MAP3K7 (UniProt O43318)
inactive: [1] -0.085 | [2] 0.005 | [3] 0.11 | [4] 0.061 | [5] 0.023

MARK3 (UniProt P27448)
inactive: [1] -0.042 | [2] 0.039 | [3] 0.104 | [4] 0.121 | [5] 0.004

MARCHF5 (UniProt Q9NX47)
inactive: [1] -0.034 | [2] 0.027 | [3] -0.032 | [4] -0.042 | [5] 0.045

MAGT1 (UniProt Q9H0U3)
inactive: [1] 0.042 | [2] -0.006 | [3] 0.005 | [4] 0.034 | [5] 0.004

MAIP1 (UniProt Q8WWC4)
inactive: [1] 0.012 | [2] 0.075 | [3] 0.028 | [4] -0.026 | [5] 0.002

Quoted from the entries so far (4 entries):
MARK3 (UniProt P27448)
inactive: [1] -0.042 | [2] 0.039 | [3] 0.104 | [4] 0.121 | [5] 0.004

MARCHF5 (UniProt Q9NX47)
inactive: [1] -0.034 | [2] 0.027 | [3] -0.032 | [4] -0.042 | [5] 0.045

MAGT1 (UniProt Q9H0U3)
inactive: [1] 0.042 | [2] -0.006 | [3] 0.005 | [4] 0.034 | [5] 0.004

MAIP1 (UniProt Q8WWC4)
inactive: [1] 0.012 | [2] 0.075 | [3] 0.028 | [4] -0.026 | [5] 0.002

The listing continues.

LRRFIP1 (UniProt Q32MZ4)
inactive: [1] 0.019 | [2] 0.036 | [3] -0.016 | [4] 0.023 | [5] 0.011

MAGEC1 (UniProt O60732)
inactive: [1] 0.088 | [2] -0.11 | [3] -0.029 | [4] 0.031 | [5] -0.087

MAN2B1 (UniProt O00754)
inactive: [1] 0.06 | [2] 0.046 | [3] 0.056 | [4] 0.027 | [5] 0.05

LUC7L (UniProt Q9NQ29)
inactive: [1] 0.011 | [2] -0.015 | [3] -0.011 | [4] 0 | [5] 0.027

LRRC8E (UniProt Q6NSJ5)
inactive: [1] 0.05 | [2] -0.051 | [3] -0.065 | [4] 0.044 | [5] -0.065

LUC7L2 (UniProt Q9Y383)
inactive: [1] 0.023 | [2] -0.044 | [3] 0.036 | [4] 0.006 | [5] 0.014

MAP4K4 isoform 3 (UniProt O95819)
active: [5] 0.264
inactive: [1] 0.009 | [2] 0.032 | [3] 0.044 | [4] 0.04

MAP7 isoform 7 (UniProt Q14244)
inactive: [1] 0.131 | [2] -0.19 | [3] -0.202 | [4] 0.114 | [5] -0.007

MAPRE3 (UniProt Q9UPY8)
inactive: [1] -0.042 | [2] 0.011 | [3] 0.026 | [4] -0.01 | [5] -0.014

LYAR (UniProt Q9NX58)
inactive: [1] 0.131 | [2] -0.411 | [3] -0.435 | [4] 0.255 | [5] 0.021

LTV1 (UniProt Q96GA3)
inactive: [1] -0.02 | [2] -0.137 | [3] -0.033 | [4] 0.17 | [5] 0

MAP3K2 (UniProt Q9Y2U5)
inactive: [1] 0.273 | [2] 0.002 | [3] 0.198 | [4] -0.035 | [5] -0.123

MANBA (UniProt O00462)
inactive: [1] 0.063 | [2] 0.028 | [3] 0.04 | [4] 0.03 | [5] 0.034

LYN (UniProt P07948)
inactive: [1] 0.035 | [2] 0.038 | [3] 0.013 | [4] 0.028 | [5] -0.043

LZTFL1 (UniProt Q9NQ48)
inactive: [1] -0.012 | [2] 0.036 | [3] 0.025 | [4] -0.021 | [5] -0.062

LSM2 (UniProt Q9Y333)
inactive: [1] 0.011 | [2] 0.034 | [3] -0.026 | [4] -0.015 | [5] 0.006

MAP2K4 isoform 2 (UniProt P45985)
inactive: [1] -0.049 | [2] 0.053 | [3] 0.066 | [4] 0.004 | [5] 0.037

MACC1 (UniProt Q6ZN28)
inactive: [1] 0.049 | [2] 0.011 | [3] -0.053 | [4] 0.034 | [5] -0.11

LSM8 (UniProt O95777)
inactive: [1] 0.007 | [2] 0.044 | [3] 0.01 | [4] -0.023 | [5] 0.008

LYRM4 (UniProt Q9HD34)
inactive: [1] 0 | [2] 0.096 | [3] 0.057 | [4] 0.004 | [5] 0.027

MARCKSL1 (UniProt P49006)
inactive: [1] -0.052 | [2] 0.029 | [3] -0.032 | [4] -0.008 | [5] 0.011

MAP3K20 (UniProt Q9NYL2)
inactive: [1] 0.02 | [2] -0.037 | [3] 0.017 | [4] 0.005 | [5] 0.022

Source: the supplement of paper PMC10849652
